Data from the supplement of paper PMC6411743.
± gives the standard deviation of the averaged measurements. This is one part of the list.

Amino acid sequences for entries named in this document (tags omitted). A change or cut given only in a name is not applied to a line headed by its entry.
UniProt Q5TFE4: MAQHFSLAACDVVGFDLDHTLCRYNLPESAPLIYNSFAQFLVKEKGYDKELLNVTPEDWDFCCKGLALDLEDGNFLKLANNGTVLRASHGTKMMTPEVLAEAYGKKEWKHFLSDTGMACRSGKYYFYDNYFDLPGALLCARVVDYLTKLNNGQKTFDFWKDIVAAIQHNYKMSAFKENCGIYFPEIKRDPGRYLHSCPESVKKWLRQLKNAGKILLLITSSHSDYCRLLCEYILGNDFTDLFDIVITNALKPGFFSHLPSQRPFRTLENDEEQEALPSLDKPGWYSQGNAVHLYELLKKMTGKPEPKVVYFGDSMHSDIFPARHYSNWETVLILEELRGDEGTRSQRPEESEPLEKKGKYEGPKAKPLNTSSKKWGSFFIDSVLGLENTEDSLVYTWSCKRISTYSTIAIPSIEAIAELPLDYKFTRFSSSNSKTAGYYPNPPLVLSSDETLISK
UniProt Q6GMV3: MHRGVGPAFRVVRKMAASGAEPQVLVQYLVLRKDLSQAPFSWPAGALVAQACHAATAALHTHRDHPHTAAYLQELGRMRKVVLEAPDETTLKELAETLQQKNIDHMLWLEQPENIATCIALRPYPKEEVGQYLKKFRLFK
UniProt Q7Z422: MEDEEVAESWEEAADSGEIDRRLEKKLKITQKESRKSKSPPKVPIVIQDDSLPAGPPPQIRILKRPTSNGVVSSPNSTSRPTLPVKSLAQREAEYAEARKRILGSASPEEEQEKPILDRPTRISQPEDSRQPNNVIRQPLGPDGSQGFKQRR
UniProt Q5TC82: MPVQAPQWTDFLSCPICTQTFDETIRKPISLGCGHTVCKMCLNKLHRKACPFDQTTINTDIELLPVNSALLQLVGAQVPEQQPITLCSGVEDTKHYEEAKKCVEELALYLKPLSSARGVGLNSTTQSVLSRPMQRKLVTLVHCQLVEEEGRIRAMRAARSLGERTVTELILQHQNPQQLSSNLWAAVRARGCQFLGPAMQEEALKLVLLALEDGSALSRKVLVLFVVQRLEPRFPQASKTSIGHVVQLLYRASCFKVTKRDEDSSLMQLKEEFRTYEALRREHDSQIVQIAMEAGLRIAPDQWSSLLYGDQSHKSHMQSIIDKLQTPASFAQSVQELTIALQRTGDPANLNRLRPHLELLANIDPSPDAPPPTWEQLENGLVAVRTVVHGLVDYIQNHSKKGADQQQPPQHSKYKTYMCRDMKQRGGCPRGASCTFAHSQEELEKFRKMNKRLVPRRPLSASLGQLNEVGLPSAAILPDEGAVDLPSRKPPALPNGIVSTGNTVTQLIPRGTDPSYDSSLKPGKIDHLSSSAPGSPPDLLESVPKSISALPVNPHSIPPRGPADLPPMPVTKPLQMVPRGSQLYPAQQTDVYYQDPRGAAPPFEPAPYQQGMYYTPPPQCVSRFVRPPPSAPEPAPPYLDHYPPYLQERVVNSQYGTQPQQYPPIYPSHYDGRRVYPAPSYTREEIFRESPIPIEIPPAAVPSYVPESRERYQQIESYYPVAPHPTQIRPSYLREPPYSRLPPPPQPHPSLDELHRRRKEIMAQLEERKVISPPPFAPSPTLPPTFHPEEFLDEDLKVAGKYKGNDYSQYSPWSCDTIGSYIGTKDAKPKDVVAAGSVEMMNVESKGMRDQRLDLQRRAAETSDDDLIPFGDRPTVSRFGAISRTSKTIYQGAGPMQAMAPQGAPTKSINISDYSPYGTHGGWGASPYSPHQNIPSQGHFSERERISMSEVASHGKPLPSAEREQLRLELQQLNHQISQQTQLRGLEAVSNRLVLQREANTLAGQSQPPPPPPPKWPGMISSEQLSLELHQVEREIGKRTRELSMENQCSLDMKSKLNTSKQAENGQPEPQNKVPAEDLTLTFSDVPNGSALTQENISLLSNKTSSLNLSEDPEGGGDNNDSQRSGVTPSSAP
UniProt Q6PHR2: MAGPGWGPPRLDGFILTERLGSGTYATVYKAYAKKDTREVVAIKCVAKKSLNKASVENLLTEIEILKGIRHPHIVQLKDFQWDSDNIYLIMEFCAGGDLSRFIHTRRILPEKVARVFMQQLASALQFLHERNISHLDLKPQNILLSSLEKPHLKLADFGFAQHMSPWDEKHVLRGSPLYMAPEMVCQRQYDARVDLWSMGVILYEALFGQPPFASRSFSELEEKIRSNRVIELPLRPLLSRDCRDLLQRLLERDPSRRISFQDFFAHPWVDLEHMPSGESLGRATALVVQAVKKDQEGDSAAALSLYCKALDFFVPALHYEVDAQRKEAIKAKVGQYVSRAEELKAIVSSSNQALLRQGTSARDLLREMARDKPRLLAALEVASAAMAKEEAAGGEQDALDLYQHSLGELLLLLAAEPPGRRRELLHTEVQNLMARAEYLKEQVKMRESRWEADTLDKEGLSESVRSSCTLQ
UniProt Q86U42: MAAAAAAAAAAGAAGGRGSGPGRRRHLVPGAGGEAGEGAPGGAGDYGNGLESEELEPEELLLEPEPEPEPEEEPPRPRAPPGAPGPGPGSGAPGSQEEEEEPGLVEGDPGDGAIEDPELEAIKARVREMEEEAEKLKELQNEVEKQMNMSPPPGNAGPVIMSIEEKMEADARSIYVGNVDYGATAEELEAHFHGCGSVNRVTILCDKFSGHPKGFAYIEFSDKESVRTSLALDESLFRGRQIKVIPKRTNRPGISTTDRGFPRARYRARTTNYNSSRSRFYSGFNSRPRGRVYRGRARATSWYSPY
UniProt Q69YI7: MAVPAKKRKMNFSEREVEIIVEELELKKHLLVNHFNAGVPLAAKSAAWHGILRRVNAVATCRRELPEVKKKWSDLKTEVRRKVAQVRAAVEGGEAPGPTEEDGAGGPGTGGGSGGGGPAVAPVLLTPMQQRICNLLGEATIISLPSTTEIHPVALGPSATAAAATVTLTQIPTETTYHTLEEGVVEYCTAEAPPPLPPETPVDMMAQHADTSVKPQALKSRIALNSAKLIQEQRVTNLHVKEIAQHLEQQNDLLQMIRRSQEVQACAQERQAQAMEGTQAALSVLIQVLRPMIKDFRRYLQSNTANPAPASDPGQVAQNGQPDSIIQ
UniProt Q86SF2: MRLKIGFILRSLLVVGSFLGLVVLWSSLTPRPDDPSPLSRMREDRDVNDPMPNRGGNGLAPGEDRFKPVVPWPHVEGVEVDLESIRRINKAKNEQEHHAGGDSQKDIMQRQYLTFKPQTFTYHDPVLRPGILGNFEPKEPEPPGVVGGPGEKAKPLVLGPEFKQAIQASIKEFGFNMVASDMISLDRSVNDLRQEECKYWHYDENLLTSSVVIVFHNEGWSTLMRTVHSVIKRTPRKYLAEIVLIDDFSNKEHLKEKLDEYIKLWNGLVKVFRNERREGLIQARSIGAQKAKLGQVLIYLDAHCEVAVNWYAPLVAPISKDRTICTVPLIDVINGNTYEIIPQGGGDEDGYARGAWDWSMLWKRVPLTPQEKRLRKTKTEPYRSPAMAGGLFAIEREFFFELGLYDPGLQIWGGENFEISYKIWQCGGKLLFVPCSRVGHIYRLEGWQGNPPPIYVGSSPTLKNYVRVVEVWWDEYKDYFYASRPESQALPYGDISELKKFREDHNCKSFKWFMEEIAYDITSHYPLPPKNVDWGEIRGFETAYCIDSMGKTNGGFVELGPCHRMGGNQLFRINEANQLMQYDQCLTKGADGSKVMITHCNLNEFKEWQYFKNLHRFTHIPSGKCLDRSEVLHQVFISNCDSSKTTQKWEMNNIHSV
UniProt Q5VWP2: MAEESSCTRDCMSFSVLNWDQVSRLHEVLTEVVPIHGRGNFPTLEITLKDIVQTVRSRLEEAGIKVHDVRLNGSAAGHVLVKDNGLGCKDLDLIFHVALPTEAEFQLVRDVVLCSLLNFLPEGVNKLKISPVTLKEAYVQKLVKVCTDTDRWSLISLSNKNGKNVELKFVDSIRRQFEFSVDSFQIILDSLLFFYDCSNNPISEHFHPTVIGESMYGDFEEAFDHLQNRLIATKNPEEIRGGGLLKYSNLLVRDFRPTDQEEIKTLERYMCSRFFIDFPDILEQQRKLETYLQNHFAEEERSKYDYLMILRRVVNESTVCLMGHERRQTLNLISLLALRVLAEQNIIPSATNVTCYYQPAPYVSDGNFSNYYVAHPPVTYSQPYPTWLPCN
UniProt Q659A1: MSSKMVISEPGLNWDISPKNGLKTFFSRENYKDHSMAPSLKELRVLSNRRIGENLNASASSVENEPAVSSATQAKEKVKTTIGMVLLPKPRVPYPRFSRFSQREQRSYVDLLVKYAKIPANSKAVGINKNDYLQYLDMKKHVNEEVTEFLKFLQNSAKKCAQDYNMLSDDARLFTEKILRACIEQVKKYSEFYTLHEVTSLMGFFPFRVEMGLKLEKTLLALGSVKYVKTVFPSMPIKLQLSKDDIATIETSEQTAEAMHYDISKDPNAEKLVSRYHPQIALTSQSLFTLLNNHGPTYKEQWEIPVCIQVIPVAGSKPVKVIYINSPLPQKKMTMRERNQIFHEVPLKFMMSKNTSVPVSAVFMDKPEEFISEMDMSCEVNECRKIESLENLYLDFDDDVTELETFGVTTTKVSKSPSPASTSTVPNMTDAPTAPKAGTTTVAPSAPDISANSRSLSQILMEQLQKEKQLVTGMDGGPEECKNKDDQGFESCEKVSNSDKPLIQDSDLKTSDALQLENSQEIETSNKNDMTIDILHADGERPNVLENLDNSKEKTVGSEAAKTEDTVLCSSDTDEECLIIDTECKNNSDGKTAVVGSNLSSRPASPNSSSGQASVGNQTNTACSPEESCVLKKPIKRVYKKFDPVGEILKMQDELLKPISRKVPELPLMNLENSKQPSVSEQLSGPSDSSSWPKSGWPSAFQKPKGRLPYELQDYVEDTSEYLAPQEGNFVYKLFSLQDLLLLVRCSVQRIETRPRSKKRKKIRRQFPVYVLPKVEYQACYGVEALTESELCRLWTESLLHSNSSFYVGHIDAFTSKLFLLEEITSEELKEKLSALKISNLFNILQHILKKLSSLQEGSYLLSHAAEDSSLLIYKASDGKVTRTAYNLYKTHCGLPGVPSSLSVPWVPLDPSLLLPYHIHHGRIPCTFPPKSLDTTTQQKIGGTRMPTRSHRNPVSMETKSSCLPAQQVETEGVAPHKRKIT
UniProt Q641Q2, whole entry: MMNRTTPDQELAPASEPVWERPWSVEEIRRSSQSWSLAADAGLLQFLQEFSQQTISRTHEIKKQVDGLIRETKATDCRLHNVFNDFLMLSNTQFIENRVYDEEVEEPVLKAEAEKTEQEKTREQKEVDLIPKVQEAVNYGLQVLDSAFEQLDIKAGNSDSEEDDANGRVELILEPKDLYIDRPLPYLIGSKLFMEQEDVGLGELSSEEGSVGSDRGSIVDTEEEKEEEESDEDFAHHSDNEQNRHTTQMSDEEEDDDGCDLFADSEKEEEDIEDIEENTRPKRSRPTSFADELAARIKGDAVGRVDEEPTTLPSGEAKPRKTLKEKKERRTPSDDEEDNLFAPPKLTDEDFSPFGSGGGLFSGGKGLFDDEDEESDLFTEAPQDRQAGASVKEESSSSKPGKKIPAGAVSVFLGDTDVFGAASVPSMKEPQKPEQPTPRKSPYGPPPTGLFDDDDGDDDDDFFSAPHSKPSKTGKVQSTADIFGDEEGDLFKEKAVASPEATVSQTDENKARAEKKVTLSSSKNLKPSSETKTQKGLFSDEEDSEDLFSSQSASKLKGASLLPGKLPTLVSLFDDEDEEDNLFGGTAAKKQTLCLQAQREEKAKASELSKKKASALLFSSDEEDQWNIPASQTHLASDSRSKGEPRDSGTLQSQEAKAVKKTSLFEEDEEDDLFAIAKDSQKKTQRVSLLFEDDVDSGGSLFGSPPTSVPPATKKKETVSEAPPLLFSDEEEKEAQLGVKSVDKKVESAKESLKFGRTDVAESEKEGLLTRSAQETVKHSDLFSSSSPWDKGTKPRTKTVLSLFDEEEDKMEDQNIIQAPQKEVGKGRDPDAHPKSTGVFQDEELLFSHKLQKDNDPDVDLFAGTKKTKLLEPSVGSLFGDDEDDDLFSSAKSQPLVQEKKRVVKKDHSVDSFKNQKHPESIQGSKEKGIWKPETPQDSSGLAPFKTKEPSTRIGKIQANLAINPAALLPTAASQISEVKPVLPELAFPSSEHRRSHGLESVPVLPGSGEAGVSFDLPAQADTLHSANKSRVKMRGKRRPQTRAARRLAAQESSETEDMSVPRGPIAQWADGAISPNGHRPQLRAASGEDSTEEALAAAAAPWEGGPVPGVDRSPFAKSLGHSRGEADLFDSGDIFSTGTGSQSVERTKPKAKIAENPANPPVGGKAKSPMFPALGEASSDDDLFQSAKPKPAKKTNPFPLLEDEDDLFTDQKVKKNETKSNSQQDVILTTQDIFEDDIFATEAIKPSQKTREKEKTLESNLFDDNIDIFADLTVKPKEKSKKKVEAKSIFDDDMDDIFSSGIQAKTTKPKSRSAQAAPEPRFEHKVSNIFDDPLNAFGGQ
UniProt Q712K3: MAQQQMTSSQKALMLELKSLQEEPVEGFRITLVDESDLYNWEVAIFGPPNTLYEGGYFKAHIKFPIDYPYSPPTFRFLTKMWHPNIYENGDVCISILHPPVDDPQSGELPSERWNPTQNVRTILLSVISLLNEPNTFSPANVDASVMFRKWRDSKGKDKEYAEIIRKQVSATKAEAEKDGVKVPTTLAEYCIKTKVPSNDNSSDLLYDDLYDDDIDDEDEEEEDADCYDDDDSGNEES

Compound: Nc1nc2c(ncn2[C@@H]2O[C@H](COP(=O)(O)OP(=O)(O)OP(=O)(O)O)[C@@H](O)[C@H]2O)c(=O)[nH]1 [guanosine triphosphate]
Test: NP40-soluble protein abundance relative to vehicle (solubility fold change) (ratio); higher = more soluble protein in presence of GTP
Procedure, shortened: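 Eight concentrations, 0.1 to 10 mM, were tested on Jurkat crude lysate for 10 min at room temperature and then 3 min at 37 °C, in three independent experiments. The lysate was solubilised with 0.8% NP40 and benzonase, ultracentrifuged, and the supernatant TMT-labelled for LC-MS/MS. Each value is the fold change against the detergent-processed vehicle in its own replicate, from vsn-normalised intensities.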

| Target | NP40-soluble protein abundance (concentration: 0.1mM) | NP40-soluble protein abundance (concentration: 0.5mM) | NP40-soluble protein abundance (concentration: 1mM) | NP40-soluble protein abundance (concentration: 2mM) | NP40-soluble protein abundance (concentration: 4mM) | NP40-soluble protein abundance (concentration: 6mM) | NP40-soluble protein abundance (concentration: 8mM) | NP40-soluble protein abundance (concentration: 10mM) |
| --- | --- | --- | --- | --- | --- | --- | --- | --- |
| NT5DC1 (UniProt Q5TFE4) | 1.06 ± 0.073 | 1.08 ± 0.1 | 0.943 ± 0.065 | 0.934 ± 0.14 | 0.895 ± 0.097 | 0.909 ± 0.057 | 0.881 ± 0.07 | 0.888 ± 0.089 |
| UniProt Q6GMV3 | 0.902 ± 0.087 | 0.887 ± 0.048 | 0.997 ± 0.088 | 0.925 ± 0.044 | 0.912 ± 0.034 | 0.945 ± 0.12 | 0.969 ± 0.11 | 1.01 ± 0.098 |
| UniProt Q86V59 and related entries | 1.04 ± 0.046 | 0.975 ± 0.041 | 1.05 ± 0.059 | 1.09 ± 0.051 | 1.12 ± 0.14 | 1.1 ± 0.15 | 1.14 ± 0.05 | 1.2 ± 0.19 |
| UniProt Q6IQ49 and related entries | 0.932 ± 0.016 | 0.913 ± 0.036 | 0.932 ± 0.037 | 0.91 ± 0.059 | 0.932 ± 0.072 | 0.957 ± 0.07 | 0.966 ± 0.037 | 0.979 ± 0.054 |
| UniProt Q5VW36 | 0.906 ± 0.12 | 0.82 ± 0.12 | 0.7823 ± 0.0067 | 0.849 ± 0.12 | 0.893 ± 0.04 | 0.918 ± 0.13 | 0.933 ± 0.1 | 0.984 ± 0.15 |
| Q5TDE7 and related entries (UniProt Q5VTB9) | 1.02 ± 0.15 | 0.909 ± 0.13 | 0.908 ± 0.12 | 0.938 ± 0.24 | 0.987 ± 0.13 | 0.97 ± 0.17 | 0.968 ± 0.086 | 0.909 ± 0.13 |
| HEATR3 (UniProt Q7Z4Q2) | 1.056 ± 0.0086 | 1 ± 0.032 | 1 ± 0.023 | 1.03 ± 0.035 | 1.05 ± 0.062 | 1.03 ± 0.046 | 1.04 ± 0.018 | 1.02 ± 0.052 |
| UniProt Q7Z422 and related entries | 0.923 ± 0.024 | 0.989 ± 0.087 | 0.984 ± 0.071 | 0.98 ± 0.12 | 0.967 ± 0.12 | 0.993 ± 0.12 | 1.04 ± 0.11 | 1.13 ± 0.14 |
| UniProt Q5TC82 and related entries | 0.966 ± 0.096 | 0.928 ± 0.071 | 0.981 ± 0.17 | 0.968 ± 0.11 | 0.919 ± 0.057 | 0.869 ± 0.082 | 0.937 ± 0.065 | 0.921 ± 0.12 |
| PRPF8 (UniProt Q6P2Q9) | 1.1 ± 0.079 | 1.2 ± 0.17 | 1.12 ± 0.18 | 1.24 ± 0.26 | 1.33 ± 0.27 | 1.43 ± 0.33 | 1.46 ± 0.27 | 1.41 ± 0.27 |
| UniProt Q6PHR2 and related entries | 1.12 ± 0.09 | 1.13 ± 0.15 | 1.1 ± 0.078 | 1.09 ± 0.038 | 1.08 ± 0.078 | 0.974 ± 0.093 | 1.03 ± 0.038 | 0.952 ± 0.067 |
| MEPCE (UniProt Q7L2J0) | 1.02 ± 0.035 | 1.09 ± 0.065 | 1.04 ± 0.019 | 1.07 ± 0.031 | 1.06 ± 0.03 | 1.17 ± 0.057 | 1.2 ± 0.081 | 1.27 ± 0.095 |
| UniProt Q7Z460-4 | 0.99 ± 0.059 | 1.02 ± 0.065 | 1.03 ± 0.059 | 1.03 ± 0.072 | 1.02 ± 0.054 | 1.03 ± 0.064 | 1.04 ± 0.056 | 1.04 ± 0.075 |
| UniProt Q86U42 and related entries | 0.939 ± 0.032 | 0.921 ± 0.0098 | 0.972 ± 0.049 | 0.972 ± 0.023 | 1.01 ± 0.05 | 1.02 ± 0.071 | 1.03 ± 0.067 | 1.04 ± 0.052 |
| UniProt Q7Z739 and related entries | 1.01 ± 0.064 | 1.02 ± 0.087 | 0.939 ± 0.054 | 0.938 ± 0.05 | 0.911 ± 0.11 | 0.934 ± 0.12 | 0.941 ± 0.057 | 0.946 ± 0.1 |
| NAIF1 (UniProt Q69YI7) | 0.942 ± 0.03 | 0.913 ± 0.089 | 0.958 ± 0.082 | 0.914 ± 0.054 | 1 ± 0.02 | 0.947 ± 0.11 | 0.885 ± 0.018 | 1.03 ± 0.035 |
| UniProt Q86UY6 | 1.1 ± 0.034 | 1.17 ± 0.015 | 1.25 ± 0.032 | 1.38 ± 0.035 | 1.51 ± 0.1 | 1.56 ± 0.069 | 1.63 ± 0.04 | 1.62 ± 0.18 |
| UniProt Q6ZSZ5 and related entries | 1.03 ± 0.021 | 1.04 ± 0.044 | 1.05 ± 0.029 | 1.05 ± 0.058 | 1.03 ± 0.072 | 1.08 ± 0.027 | 1.07 ± 0.082 | 1.06 ± 0.055 |
| RNF20 (UniProt Q5VTR2) | 0.98 ± 0.057 | 0.982 ± 0.055 | 0.978 ± 0.044 | 0.948 ± 0.063 | 0.957 ± 0.054 | 0.947 ± 0.052 | 0.987 ± 0.065 | 0.95 ± 0.056 |
| UniProt Q86TI0 and related entries | 1.02 ± 0.067 | 1 ± 0.098 | 0.993 ± 0.096 | 0.969 ± 0.057 | 0.985 ± 0.06 | 0.971 ± 0.055 | 0.978 ± 0.11 | 0.929 ± 0.086 |
| UniProt Q5VIR6-4 | 1.04 ± 0.028 | 1.07 ± 0.02 | 1.04 ± 0.049 | 1.05 ± 0.016 | 1.04 ± 0.03 | 0.975 ± 0.054 | 1.01 ± 0.054 | 0.993 ± 0.023 |
| DNMBP (UniProt Q6XZF7) | 1.09 ± 0.044 | 1.02 ± 0.052 | 1.06 ± 0.031 | 1.02 ± 0.044 | 1.03 ± 0.069 | 1.01 ± 0.071 | 1.04 ± 0.022 | 0.947 ± 0.067 |
| GALNT7 (UniProt Q86SF2) | 1.05 ± 0.083 | 1.05 ± 0.059 | 0.97 ± 0.041 | 0.975 ± 0.059 | 0.938 ± 0.051 | 0.926 ± 0.07 | 0.913 ± 0.048 | 0.893 ± 0.07 |
| CROCC (UniProt Q5TZA2) | 1.03 ± 0.035 | 0.997 ± 0.085 | 0.972 ± 0.13 | 0.924 ± 0.06 | 0.906 ± 0.071 | 0.947 ± 0.091 | 0.926 ± 0.12 | 0.929 ± 0.11 |
| UniProt Q7Z7A4 and related entries | 1.06 ± 0.096 | 1.04 ± 0.043 | 1.01 ± 0.11 | 0.94 ± 0.11 | 1.05 ± 0.12 | 0.881 ± 0.1 | 0.967 ± 0.061 | 0.866 ± 0.026 |
| UniProt Q6GYQ0 and related entries | 1.07 ± 0.048 | 1.08 ± 0.064 | 1.09 ± 0.069 | 1.07 ± 0.066 | 1.12 ± 0.13 | 1.06 ± 0.11 | 1.12 ± 0.13 | 1.07 ± 0.11 |
| UniProt Q5VWP2 | 1.01 ± 0.087 | 0.986 ± 0.09 | 0.982 ± 0.11 | 0.927 ± 0.036 | 0.979 ± 0.019 | 0.963 ± 0.025 | 0.927 ± 0.048 | 0.8867 ± 0.0049 |
| UniProt Q659A1 | 1.08 ± 0.11 | 1.13 ± 0.13 | 1.18 ± 0.16 | 1.25 ± 0.12 | 1.25 ± 0.13 | 1.2 ± 0.13 | 1.36 ± 0.27 | 1.29 ± 0.2 |
| UniProt Q641Q2 and related entries | 1 ± 0.11 | 0.945 ± 0.061 | 1.02 ± 0.031 | 1.05 ± 0.18 | 0.951 ± 0.12 | 0.921 ± 0.076 | 1.07 ± 0.073 | 1.03 ± 0.16 |
| UniProt Q712K3 | 0.89 ± 0.017 | 0.814 ± 0.026 | 0.882 ± 0.015 | 0.86 ± 0.014 | 0.838 ± 0.055 | 0.832 ± 0.051 | 0.801 ± 0.086 | 0.836 ± 0.035 |
